Reference: PubChem BioAssay AID186 (DTP/NCI, 2004)
Values are animals surviving of animals treated; these mice carried no tumour. Survivors were counted at the toxicity check, usually on the fifth day, unless a day is given; later deaths do not show. Schedules are NCI's codes, taken here to give the interval after Q, in days (D) or hours (H), and the number of doses after X. Some doses were run more than once; their values stand side by side, smallest first.

Tested on: B6D2F1 mice, nontumored toxicity test, survival
Test: NCI In Vivo Anticancer Drug Screen. Data for tumor model Nontumored Animals (Toxicity Test) in B6D2F1 (BDF1) mice

Measured: survivor count

CC(C)[C@]12O[C@H]1[C@@H]1O[C@]13[C@]1(O[C@H]1C[C@H]1C4=C(C(=O)OC4)[C@@H](O)C[C@@]13C)[C@@H]2O
4 of 8: dose: 1.0 mg/kg/injection, schedule: Q04DX003 (ip), vehicle: saline + alcohol
2 of 8: dose: 1.0 mg/kg/injection, schedule: Q08DX002 (ip), vehicle: saline + alcohol
7 of 7 and 8 of 8: dose: 0.06 mg/kg/injection, schedule: Q01DX009 (ip), vehicle: saline with Tween-80 | dose: 0.25 mg/kg/injection, schedule: Q01DX009 (ip), vehicle: saline + alcohol
0 of 8 and 2 of 8: dose: 1.0 mg/kg/injection, schedule: Q01DX009 (ip), vehicle: saline + alcohol
5 of 8: dose: 1.0 mg/kg/injection, schedule: Q01DX001 (ip), vehicle: saline + alcohol
7 of 8: dose: 0.5 mg/kg/injection, schedule: Q01DX009 (sc), vehicle: saline + alcohol | dose: 62.5 micrograms/kg/injection, schedule: Q03HX016 (ip), vehicle: saline + alcohol | dose: 62.5 micrograms/kg/injection, schedule: Q03HX024 (sc), vehicle: saline + alcohol
2 of 8, 3 of 8, 7 of 8, 7 of 7: dose: 0.5 mg/kg/injection, schedule: Q01DX009 (ip), vehicle: saline + alcohol
7 of 8 and 8 of 8: dose: 0.13 mg/kg/injection, schedule: Q01DX009 (ip), vehicle: saline + alcohol | dose: 31.3 micrograms/kg/injection, schedule: Q03HX024 (oral), vehicle: saline + alcohol
1 of 8 and 5 of 8: dose: 0.5 mg/kg/injection, schedule: Q01DX009 (oral), vehicle: saline + alcohol
4 of 8 and 7 of 8: dose: 62.5 micrograms/kg/injection, schedule: Q03HX024 (oral), vehicle: saline + alcohol
0 of 8: dose: 1.0 mg/kg/injection, schedule: Q01DX009 (ip), vehicle: saline with Tween-80 | dose: 1.0 mg/kg/injection, schedule: Q01DX009 (oral), vehicle: saline + alcohol | dose: 1.0 mg/kg/injection, schedule: Q01DX009 (sc), vehicle: saline + alcohol | dose: 2.0 mg/kg/injection, schedule: Q01DX001 (ip), vehicle: saline + alcohol | dose: 2.0 mg/kg/injection, schedule: Q01DX009 (ip), vehicle: saline + alcohol | dose: 2.0 mg/kg/injection, schedule: Q01DX009 (ip), vehicle: saline with Tween-80 | dose: 2.0 mg/kg/injection, schedule: Q01DX009 (oral), vehicle: saline + alcohol | dose: 2.0 mg/kg/injection, schedule: Q01DX009 (sc), vehicle: saline + alcohol | dose: 2.0 mg/kg/injection, schedule: Q08DX002 (ip), vehicle: saline + alcohol | dose: 4.0 mg/kg/injection, schedule: Q01DX001 (ip), vehicle: saline + alcohol | dose: 4.0 mg/kg/injection, schedule: Q01DX009 (oral), vehicle: saline + alcohol | dose: 125.0 micrograms/kg/injection, schedule: Q03HX008 (ip), vehicle: saline + alcohol | dose: 125.0 micrograms/kg/injection, schedule: Q03HX016 (ip), vehicle: saline + alcohol | dose: 125.0 micrograms/kg/injection, schedule: Q03HX024 (ip), vehicle: saline + alcohol | dose: 125.0 micrograms/kg/injection, schedule: Q03HX024 (oral), vehicle: saline + alcohol | dose: 125.0 micrograms/kg/injection, schedule: Q03HX024 (sc), vehicle: saline + alcohol | dose: 250.0 micrograms/kg/injection, schedule: Q03HX008 (ip), vehicle: saline + alcohol | dose: 250.0 micrograms/kg/injection, schedule: Q03HX016 (ip), vehicle: saline + alcohol | dose: 250.0 micrograms/kg/injection, schedule: Q03HX024 (oral), vehicle: saline + alcohol | dose: 500.0 micrograms/kg/injection, schedule: Q03HX008 (ip), vehicle: saline + alcohol
1 of 8 and 6 of 8: dose: 0.5 mg/kg/injection, schedule: Q01DX009 (ip), vehicle: saline with Tween-80
6 of 6 and 8 of 8: dose: 0.13 mg/kg/injection, schedule: Q01DX009 (oral), vehicle: saline + alcohol
8 of 8: dose: 0.03 mg/kg/injection, schedule: Q01DX009 (ip), vehicle: saline + alcohol | dose: 0.06 mg/kg/injection, schedule: Q01DX009 (ip), vehicle: saline + alcohol | dose: 0.06 mg/kg/injection, schedule: Q01DX009 (sc), vehicle: saline + alcohol | dose: 0.06 mg/kg/injection, schedule: Q04DX003 (ip), vehicle: saline + alcohol | dose: 0.12 mg/kg/injection, schedule: Q01DX009 (ip), vehicle: saline + alcohol | dose: 0.12 mg/kg/injection, schedule: Q01DX009 (ip), vehicle: saline with Tween-80 | dose: 0.12 mg/kg/injection, schedule: Q01DX009 (sc), vehicle: saline + alcohol | dose: 0.12 mg/kg/injection, schedule: Q04DX003 (ip), vehicle: saline + alcohol | dose: 0.12 mg/kg/injection, schedule: Q08DX002 (ip), vehicle: saline + alcohol | dose: 0.13 mg/kg/injection, schedule: Q01DX009 (ip), vehicle: saline with Tween-80 | dose: 0.25 mg/kg/injection, schedule: Q01DX001 (ip), vehicle: saline + alcohol | dose: 0.25 mg/kg/injection, schedule: Q01DX009 (ip), vehicle: saline with Tween-80 | dose: 0.25 mg/kg/injection, schedule: Q01DX009 (oral), vehicle: saline + alcohol | dose: 0.25 mg/kg/injection, schedule: Q01DX009 (sc), vehicle: saline + alcohol | dose: 0.25 mg/kg/injection, schedule: Q04DX003 (ip), vehicle: saline + alcohol | dose: 0.25 mg/kg/injection, schedule: Q08DX002 (ip), vehicle: saline + alcohol | dose: 0.5 mg/kg/injection, schedule: Q01DX001 (ip), vehicle: saline + alcohol | dose: 0.5 mg/kg/injection, schedule: Q04DX003 (ip), vehicle: saline + alcohol | dose: 0.5 mg/kg/injection, schedule: Q08DX002 (ip), vehicle: saline + alcohol | dose: 8.0 micrograms/kg/injection, schedule: Q03HX024 (ip), vehicle: saline + alcohol | dose: 8.0 micrograms/kg/injection, schedule: Q03HX024 (sc), vehicle: saline + alcohol | dose: 15.6 micrograms/kg/injection, schedule: Q03HX016 (ip), vehicle: saline + alcohol | dose: 15.6 micrograms/kg/injection, schedule: Q03HX024 (ip), vehicle: saline + alcohol | dose: 15.6 micrograms/kg/injection, schedule: Q03HX024 (sc), vehicle: saline + alcohol | dose: 16.0 micrograms/kg/injection, schedule: Q03HX024 (oral), vehicle: saline + alcohol | dose: 31.2 micrograms/kg/injection, schedule: Q03HX008 (ip), vehicle: saline + alcohol | dose: 31.2 micrograms/kg/injection, schedule: Q03HX016 (ip), vehicle: saline + alcohol | dose: 31.2 micrograms/kg/injection, schedule: Q03HX024 (ip), vehicle: saline + alcohol | dose: 31.3 micrograms/kg/injection, schedule: Q03HX024 (sc), vehicle: saline + alcohol | dose: 62.5 micrograms/kg/injection, schedule: Q03HX008 (ip), vehicle: saline + alcohol | dose: 62.5 micrograms/kg/injection, schedule: Q03HX024 (ip), vehicle: saline + alcohol
